Reference: article PMC8955377, “Greener Synthesis of Antiproliferative Furoxans via Multicomponent Reactions” (Molecules, 2022)

Tests used:
[1] = NO release in physiological solution, Griess assay; settings: 100 μM, pH 7.4 PBS/MeOH 50/50, 37 °C; for % NO2– (mol/mol) with L-Cys, 1h incubation / % NO2– (mol/mol) with L-Cys, 3 h incubation: 0.5 mM L-cysteine
[2] = test system: LNCaP cells; test: Antiproliferative activity, sulforhodamine B assay, LNCaP prostate cancer cells; format: cell-based, human; settings: GI50 (HaCaT)/GI50 (LNCaP)
Method: (§1) In vitro antiproliferative activity of the compounds was determined in cells derived from bladder cancer (T24) and prostate cancer (LNCaP). The cells were incubated in the presence of the compounds for 48 h. The antiproliferative activity was determined using the sulforhodamine B assay. The results were expressed as GI50, which is the drug concentration resulting in a 50% reduction of cellular net growth when compared with the values of untreated control cells. The standard anticancer drug cisplatin was used as a positive control, and furoxan 3 and 11a were also included as ⋅NO donor reference compounds. The results are summarized in Table 2 for the Ugi product 7a, Ugi-Fx (8a) and 8b–g Ugi-furoxan derivatives, and GBB product 10 and 12a–e GBB-furoxan derivatives.
(§2) The T24 cells were grown in McCoy’s 5A (Biological Industries) supplemented with 10% FBS (Capricorn Scientific). The cells were passaged twice per week, and the culture medium was changed with the same frequency. The LNCaP cells were maintained in RPMI media (Biological Industries) supplemented with 10% FBS (Capricorn Scientific) and 10% of its own conditioned medium (complete media). The cells were passaged once per week, and the medium was changed with the same frequency. The HaCaT cells (immortalized human keratinocytes) were cultured in Dulbecco’s modified Eagle medium (Biological Industries) supplemented with 10% FBS (Capricorn Scientific). The cells were passaged twice per week, and the medium was changed with the same frequency. The cell cultures were maintained under a humidified 5% CO2 atmosphere at 37 °C.
(§3) For viability assays, cells were treated with a 0.25% Trypsin–0.05% EDTA solution and plated in 96-well plates in complete medium the day before the experiment. The cells were seeded in a 96-well plate at densities of 8 × 10^3 cells per well for T24 cells, 12.5 × 10^3 cells per well for LNCaP cells, and 10 × 10^3 cells per well for HaCaT cells. The cultures were allowed to attach for 24 h in a humidified 5% CO2 atmosphere at 37 °C. Then, the cells were treated with increasing concentrations of the compounds (0.4–100.0 µM) prepared in complete medium using stock solutions in DMSO and were kept for 48 h in a CO2 incubator. Wells with only media or 0.5% DMSO were added as controls. The antiproliferative activity of the compounds was assayed using the SRB method in at least three independent experiments.

[3] = test system: T24 cells; test: Antiproliferative activity, sulforhodamine B assay, T24 bladder cancer cells; format: cell-based, human; settings: GI50 (HaCaT)/GI50 (T24)
Method: as §1, §2, §3

Structure (SMILES)	% NO2– (mol/mol) with L-Cys, 1h incubation ([1]; 1 h)	% NO2– (mol/mol) with L-Cys, 3 h incubation [1]	SI LNCaP [2]	SI T24 [3]	% NO2– (mol/mol) without L-Cys, 1h incubation ([1]; 1 h, no L-cysteine)
CC(=O)N[C@@H](C(=O)O)C(C)(C)SN=O (racemic) [SNAP, reference compound]	18.18 (± 1.30) % (mol/mol)	20.11 (± 2.21) % (mol/mol)			
Cc1ccc(N(C(=O)c2cccc(O)c2)C(C(=O)NC(C)(C)C)c2ccccc2)cc1 (stereo not shown) [7a, N-(1-(tert-butylaminocarbonyl)-1-phenylmethyl)-N-(4-methylphenyl)-3-hydroxyphenyl carboxamide]	0.71 (± 0.39) % (mol/mol)	2.56 (± 1.77) % (mol/mol)			
Cc1ccc(N(C(=O)c2ccccc2Oc2no[n+]([O-])c2S(=O)(=O)c2ccccc2)C(C(=O)NC(C)(C)C)c2ccccc2)cc1 (stereo not shown) [8b, N-[1-(tert-butylaminocarbonyl)-1-phenylmethyl]-N-(4-methylphenyl)-2-[3-(phenylsulfonyl)-[1,2,5]oxadiazol-4-yl N2-oxide]oxyphenylcarboxamide]	37.07 (±1.59) % (mol/mol)	44.23 (± 2.81) % (mol/mol)	0.3	2.1	
Cc1ccc(N(C(=O)c2ccc(Oc3no[n+]([O-])c3S(=O)(=O)c3ccccc3)cc2)C(C(=O)NC(C)(C)C)c2ccccc2)cc1 (stereo not shown) [8c, N-[1-(tert-butylaminocarbonyl)-1-phenylmethyl]-N-(4-methylphenyl)-4-[3-(phenylsulfonyl)-[1,2,5]oxadiazol-4-yl N2-oxide]oxyphenylcarboxamide]	33.40 (±2.32) % (mol/mol)	36.79 (± 3.26) % (mol/mol)	0.2	2.1	
Cc1ccc(N(CC(=O)NC(C)(C)C)C(=O)c2cccc(Oc3no[n+]([O-])c3S(=O)(=O)c3ccccc3)c2)cc1 [8d, N-(1-(tert-butylaminocarbonyl)methyl)-N-(4-methylphenyl)-3-[3-(phenylsulfonyl)-[1,2,5]oxadiazol-4-yl N2-oxide]oxy phenylcarboxamide]	27.89 (±1.84) % (mol/mol)	39.93 (± 2.31) % (mol/mol)	0.5	4.8	
CCCCN(C(=O)c1cccc(Oc2no[n+]([O-])c2S(=O)(=O)c2ccccc2)c1)C(C(=O)NC(C)(C)C)c1ccccc1 (stereo not shown) [8e, N-(1-(tert-butylaminocarbonyl)-1-phenylmethyl)-N-(butyl)-3-[3-(phenylsulfonyl)-[1,2,5]oxadiazol-4-yl N2-oxide]oxyphenylcarboxamide]	34.62 (±1.86) % (mol/mol)	38.43 (± 1.57) % (mol/mol)	0.5		
CCCCN(CC(=O)NC(C)(C)C)C(=O)c1cccc(Oc2no[n+]([O-])c2S(=O)(=O)c2ccccc2)c1 [8f, N-(1-(tert-butylaminocarbonyl)methyl)-N-(butyl)-3-[3-(phenylsulfonyl)-[1,2,5]oxadiazol-4-yl N2-oxide]oxyphenylcarboxamide]	32.65 (±1.00) % (mol/mol)	39.79 (± 2.68) % (mol/mol)	0.4		
Cc1ccc(N(C(=O)c2ccccc2)C(C(=O)NC(C)(C)C)c2cccc(Oc3no[n+]([O-])c3S(=O)(=O)c3ccccc3)c2)cc1 (stereo not shown) [8g, N-(1-(tert-butylaminocarbonyl)-1-3-[3-(phenylsulfonyl)-[1,2,5]oxadiazol-4-yl N2-oxide]oxyphenylmethyl)-N-(4-methylphenyl)-phenylcarboxamide]	35.92 (±1.45) % (mol/mol)	40.51 (± 3.08) % (mol/mol)	0.1	2.9	
O=Cc1cccc(Oc2no[n+]([O-])c2S(=O)(=O)c2ccccc2)c1 [11a, reference compound]	19.84 (± 1.35) % (mol/mol)	20.02 (± 0.95) % (mol/mol)	0.3	1.1	
CC(C)(C)Nc1c(-c2cccc(Oc3no[n+]([O-])c3S(=O)(=O)c3ccccc3)c2)nc2ccccn12 [12a, 4-(3-(3-(tert-butylamino)imidazo[1,2-a]pyridin-2-yl)phenoxy)-3-(phenylsulfonyl)-1,2,5-oxadiazole 2-oxide]	17.22 (±1.18) % (mol/mol)	22.025 (± 1.26) % (mol/mol)	0.3	4.2	
CC(C)(C)Nc1c(-c2ccccc2Oc2no[n+]([O-])c2S(=O)(=O)c2ccccc2)nc2ccccn12 [12b, 4-(2-(3-(tert-butylamino)imidazo[1,2-a]pyridin-2-yl)phenoxy)-3-(phenylsulfonyl)-1,2,5-oxadiazole 2-oxide]	30.38 (±1.66) % (mol/mol)	35.97 (± 1.55) % (mol/mol)	0.4	3.7	
CC(C)(C)Nc1c(-c2ccc(Oc3no[n+]([O-])c3S(=O)(=O)c3ccccc3)cc2)nc2ccccn12 [12c, 4-(4-(3-(tert-butylamino)imidazo[1,2-a]pyridin-2-yl)phenoxy)-3-(phenylsulfonyl)-1,2,5-oxadiazole 2-oxide]	19.02 (±1.12) % (mol/mol)	24.10 (± 2.43) % (mol/mol)	0.2	1.7	
CC(C)(C)Nc1c(-c2cccc(Oc3no[n+]([O-])c3S(=O)(=O)c3ccccc3)c2)nc2cnccn12 [12d, 4-(3-(3-(tert-butylamino)imidazo[1,2-a]pyrazin-2-yl)phenoxy)-3-(phenylsulfonyl)-1,2,5-oxadiazole 2-oxide]	16.59 (±1.36) % (mol/mol)	19.07 (± 1.87) % (mol/mol)	1.2	3.6	
CC(C)(C)Nc1c(-c2cccc(Oc3no[n+]([O-])c3S(=O)(=O)c3ccccc3)c2)nc2sccn12 [12e, 4-(3-(5-(tert-butylamino)imidazo[2,1-b]thiazol-6-yl)phenoxy)-3-(phenylsulfonyl)-1,2,5-oxadiazole 2-oxide]	13.50 (±1.14) % (mol/mol)	16.31 (± 1.19) % (mol/mol)		10.8	
N.N.[Cl][Pt][Cl] [Cisplatin, cisplatin, reference compound]			0.1	0.8	
Cc1ccc(N(C(=O)c2cccc(Oc3no[n+]([O-])c3S(=O)(=O)c3ccccc3)c2)C(C(=O)NC(C)(C)C)c2ccccc2)cc1 (stereo not shown) [Ugi-Fx (8a), N-[1-(tert-butylaminocarbonyl)-1-phenylmethyl]-N-(4-methylphenyl)-3-[3-(phenylsulfonyl)-[1,2,5]oxadiazol-4-yl N2-oxide]oxyphenylcarboxamide]	38.45 (±1.14) % (mol/mol)	43.88 (± 1.96) % (mol/mol)	0.5	14.5	
O=S(=O)(c1ccccc1)c1no[n+]([O-])c1S(=O)(=O)c1ccccc1 [compound 2, 3,4-bis(phenylsulfonyl)furoxan, reference compound]	37.71 (± 1.16) % (mol/mol)	39.93 (± 2.19) % (mol/mol)			0.63 (± 0.80) % (mol/mol)
O=C(O)c1cccc(Oc2no[n+]([O-])c2S(=O)(=O)c2ccccc2)c1 [compound 3, reference compound]	31.81 (± 1.21) % (mol/mol)	31.83 (± 1.15) % (mol/mol)	0.4	1.7	
CC(C)(C)Nc1c(-c2cccc(O)c2)nc2ccccn12 [compound 10, N-tert-Butyl-2-(3-hydroxyphenyl)imidazo[1,2-a]pyridin-3-amine]	0.83 (± 0.56) % (mol/mol)	2.76 (± 1.45) % (mol/mol)			
